# Some of the results follow. The main result of the screen is listed elsewhere. These columns were measured beside it and carry no call. Compounds called inactive in the main read-out are mostly missing here. Potencies come from curve fits of mixed quality, noted in brackets.
# Assay: qHTS Assay for Lipid Storage Modulators in Drosophila S3 Cells;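 as to cell number change: cells counted by Cell Tracker Red CMTPX staining in the red channel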
# Conditions: BODIPY lipid droplet fluorescence, 18-24 h; for cell number change: measured here: cell count max response, cells fed with added oleic acid
# How it was run: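 Laser-scanning cytometry quantifies lipid droplet accumulation (500–530 nm total intensity; droplet/cell object ratio) in oleic acid-fed (400 uM added) Drosophila S3 cells treated with a concentration series. 20 uM Triacsin C defined 100% inhibition.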
# [1] = measured here: cell number channel AC50, cells fed with added oleic acid
# [2] = measured here: lipid fluorescence (Fed channel) AC50, cells fed with added oleic acid
Compound,cell number change,AC50 [1],AC50 [2]
COc1ccc(CC(=O)Nc2oc(-c3ccccc3)c(-c3ccccc3)c2C#N)cc1OC,-37.9%,"18.4 µM [falling, single point]","16.4 µM [falling, partial curve]"
O=C(NCCc1ccccn1)c1n[nH]c(=O)c2ccccc12,-6.35%,–,–
Cc1ccc(Cn2ncc3c(N4CCN(C5CCCC5)CC4)ncnc32)cc1,-29.3%,–,"6.51 µM [falling, single point]"
O=C(CCNC(=O)c1ccccc1Cl)Nc1cc(S(=O)(=O)N2CCOCC2)ccc1N1CCCC1,–,–,"0.326 µM [falling, partial curve, poor fit]"
CCOC(=O)Cc1csc(SCC(=O)Nc2oc(C)c3c(C)n[nH]c(=O)c23)n1,3.89%,–,"0.00461 µM [rising, full curve, poor fit]"
COC(=O)C(C)Sc1nnc(-c2ccncc2)o1 (stereo unspecified),-171%,"23.1 µM [falling, partial curve]","18.4 µM [falling, partial curve]"
COc1ccc(N2C(=O)CC(S/C(N)=N/N=C/c3ccnc4ccccc34)C2=O)cc1 (stereo unspecified),-18.7%,–,"0.461 µM [falling, single point]"
COc1ccc(S(=O)(=O)N2CN3CCN(C3)C2)cc1OC,29.2%,–,"0.58 µM [rising, single point]"
COc1ccc(C/C(O)=C(\C#N)c2nc3ccccc3[nH]2)cc1OC,12.6%,–,"0.13 µM [rising, full curve, poor fit]"
Cc1cc(C)nc(SCc2nnc(SCC#N)n2-c2cccc(Cl)c2)n1,-31.5%,"13 µM [falling, partial curve, poor fit]",–
CC(C)(C)c1cc(NC(=O)Nc2ccccc2)no1,-28.9%,–,"32.6 µM [falling, single point]"
CC(=O)Nc1ccc(C(=O)N/N=C/c2cc(Br)cc(Br)c2O)cc1,-19.1%,–,"0.184 µM [falling, full curve, poor fit]"
COc1cc(NS(C)(=O)=O)ccc1Nc1c2ccccc2nc2ccccc12,-1.77%,–,"1.84 µM [rising, full curve]"
CN(C)c1cccc(C(=O)OCC(=O)N2CCc3ccccc3C2)c1,-31.6%,"32.6 µM [falling, single point]","29.1 µM [falling, single point]"
CS(=O)(=O)Nc1ccc(C2=NN(C(=O)C3CCCCC3)C(c3cccs3)C2)cc1 (stereo unspecified),-1.1%,–,"6.51 µM [rising, partial curve, poor fit]"
N#Cc1nc(-c2ccc(Cl)cc2)oc1NCC1CCCO1 (stereo unspecified),7.7%,–,–
COc1ccc2[nH]cc(CCNC(=O)c3ccc4ccccc4n3)c2c1,–,–,"6.51 µM [falling, single point]"
S=C(NCc1ccc(Cl)cc1)Nc1ccc(Cl)cc1Cl,-45.9%,"18.4 µM [falling, partial curve]","14.6 µM [falling, partial curve]"

Compound,cell number change,AC50 [1],AC50 [2]
O=C(O)CSCC(=O)NCc1ccccc1Cl,-4.78%,"6.51 µM [rising, single point]","0.00651 µM [falling, full curve, poor fit]"
CCOC(=O)c1ccc(Nc2nnc3nc(C)cc(C)n23)cc1,111%,"29.1 µM [rising, single point]",–
O=C(COC(=O)c1cccc(F)c1)Nc1ccc2c(c1)OCCO2,-15%,–,"0.651 µM [falling, full curve]"
O=C1N(CN2CCC3(CC2)OCCO3)c2ccccc2C12OCCCO2,0.703%,–,–
COc1ccc(CCNC(=O)CCS(=O)(=O)c2ccc3c(c2)NC(=O)C(C)S3)cc1OC (stereo unspecified),1.83%,–,"9.2 µM [rising, partial curve]"
Cc1nn(C(=O)c2ccco2)c(C)c1Sc1ccc([N+](=O)[O-])cc1,-1.95%,–,–
S=c1[nH]nc(-c2cc(-c3ccccc3)n[nH]2)n1/N=C/c1c2ccccc2cc2ccccc12,-38.5%,"14.6 µM [falling, single point]","16.4 µM [falling, partial curve]"
O=c1[nH]c(=S)[nH]c2c1C(c1cc([N+](=O)[O-])c(N3CCOCC3)cc1N1CCOCC1)O2 (stereo unspecified),67.3%,"29.1 µM [rising, partial curve, poor fit]",–
COc1ccc(NC(=O)C2CCCN(C(=O)Nc3ccc(OC)cc3)C2)cc1 (stereo unspecified),–,–,"1.3 µM [falling, full curve]"
Cc1[nH]c(=O)[nH]c(=O)c1S(=O)(=O)N1CCCCC1,1.32%,–,–
CCc1ccccc1N1C[C@@]23C=C[C@@H](O2)C(C(=O)OCC(C)C)[C@H]3C1=O (stereo partly specified),-5.42%,"0.0731 µM [falling, full curve, poor fit]","0.00517 µM [falling, full curve, poor fit]"
CS(=O)(=O)N1CCN(C(=O)Cc2ccc([N+](=O)[O-])cc2)CC1,–,–,"3.98 µM [rising, partial curve]"
CC1CN(C(=O)CCC(=O)NC2CCN(Cc3ccccc3)CC2)c2ccccc2O1 (stereo unspecified),36.9%,"8.2 µM [rising, partial curve, poor fit]",–
Cc1nc(NC(C)(C)CO)c([N+](=O)[O-])cc1[N+](=O)[O-],-47.7%,"1.3 µM [falling, full curve]","1.64 µM [falling, full curve, poor fit]"
COc1ccc(N(C2=NCCCS2)S(=O)(=O)c2ccc(C(C)(C)C)cc2)cc1,-12.2%,–,"0.00517 µM [falling, full curve, poor fit]"
O=C(COc1ccc2c(c1)CCC2)N1CCc2ccccc21,-11.9%,–,"5.17 µM [falling, single point]"
CC(c1ccco1)N(C(=O)c1ccc(F)cc1)c1ccccn1 (stereo unspecified),15.9%,–,–
COc1ccc(N(C(=O)c2snc(C(N)=O)c2N)C(C(=O)NCc2ccccc2)c2ccc(F)cc2)c(OC)c1 (stereo unspecified),440%,"29.1 µM [rising, single point]","29.1 µM [falling, single point]"

# Nothing new here: an excerpt of the list.
Compound,cell number change,AC50 [1],AC50 [2]
O=c1[nH]c(=S)[nH]c2c1C(c1cc([N+](=O)[O-])c(N3CCOCC3)cc1N1CCOCC1)O2 (stereo unspecified),67.3%,"29.1 µM [rising, partial curve, poor fit]",–
COc1ccc(NC(=O)C2CCCN(C(=O)Nc3ccc(OC)cc3)C2)cc1 (stereo unspecified),–,–,"1.3 µM [falling, full curve]"
Cc1[nH]c(=O)[nH]c(=O)c1S(=O)(=O)N1CCCCC1,1.32%,–,–

# — PubChem BioAssay AID2685 (National Center for Advancing Translational Sciences (NCATS), 2010)
